These are yes or no findings as the source states them, for the method shown. For some of these results: Binding seen in cells or lysates may run through a third protein. Some results given as binding are weak or reduced against the parent protein; the word gives no strength.
T1: Ewing sarcoma RNA binding protein 1 (EWSR1) (mouse (endogenous in testis)), Q61545
T1 chain: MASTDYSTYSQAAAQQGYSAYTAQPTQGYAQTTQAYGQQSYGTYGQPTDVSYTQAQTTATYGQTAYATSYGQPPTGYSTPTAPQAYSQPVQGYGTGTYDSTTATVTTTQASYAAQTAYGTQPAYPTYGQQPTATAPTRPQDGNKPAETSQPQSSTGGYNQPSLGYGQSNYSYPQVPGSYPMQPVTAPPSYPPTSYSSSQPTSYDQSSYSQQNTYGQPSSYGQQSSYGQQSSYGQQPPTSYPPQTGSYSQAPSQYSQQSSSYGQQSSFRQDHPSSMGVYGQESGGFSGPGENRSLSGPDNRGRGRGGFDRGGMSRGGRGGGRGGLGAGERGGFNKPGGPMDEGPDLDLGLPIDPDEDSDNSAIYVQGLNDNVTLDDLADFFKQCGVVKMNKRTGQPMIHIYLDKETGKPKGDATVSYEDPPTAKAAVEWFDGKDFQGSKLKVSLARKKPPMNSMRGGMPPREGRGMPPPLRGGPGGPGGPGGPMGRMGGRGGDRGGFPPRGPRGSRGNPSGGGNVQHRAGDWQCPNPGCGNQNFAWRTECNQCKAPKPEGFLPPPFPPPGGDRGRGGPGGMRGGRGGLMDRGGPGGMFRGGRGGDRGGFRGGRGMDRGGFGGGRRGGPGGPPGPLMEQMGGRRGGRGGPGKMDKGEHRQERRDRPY

Protein sequences, listed by entry. Tags and fused reporters are not part of them.
UniProt Q96EQ9: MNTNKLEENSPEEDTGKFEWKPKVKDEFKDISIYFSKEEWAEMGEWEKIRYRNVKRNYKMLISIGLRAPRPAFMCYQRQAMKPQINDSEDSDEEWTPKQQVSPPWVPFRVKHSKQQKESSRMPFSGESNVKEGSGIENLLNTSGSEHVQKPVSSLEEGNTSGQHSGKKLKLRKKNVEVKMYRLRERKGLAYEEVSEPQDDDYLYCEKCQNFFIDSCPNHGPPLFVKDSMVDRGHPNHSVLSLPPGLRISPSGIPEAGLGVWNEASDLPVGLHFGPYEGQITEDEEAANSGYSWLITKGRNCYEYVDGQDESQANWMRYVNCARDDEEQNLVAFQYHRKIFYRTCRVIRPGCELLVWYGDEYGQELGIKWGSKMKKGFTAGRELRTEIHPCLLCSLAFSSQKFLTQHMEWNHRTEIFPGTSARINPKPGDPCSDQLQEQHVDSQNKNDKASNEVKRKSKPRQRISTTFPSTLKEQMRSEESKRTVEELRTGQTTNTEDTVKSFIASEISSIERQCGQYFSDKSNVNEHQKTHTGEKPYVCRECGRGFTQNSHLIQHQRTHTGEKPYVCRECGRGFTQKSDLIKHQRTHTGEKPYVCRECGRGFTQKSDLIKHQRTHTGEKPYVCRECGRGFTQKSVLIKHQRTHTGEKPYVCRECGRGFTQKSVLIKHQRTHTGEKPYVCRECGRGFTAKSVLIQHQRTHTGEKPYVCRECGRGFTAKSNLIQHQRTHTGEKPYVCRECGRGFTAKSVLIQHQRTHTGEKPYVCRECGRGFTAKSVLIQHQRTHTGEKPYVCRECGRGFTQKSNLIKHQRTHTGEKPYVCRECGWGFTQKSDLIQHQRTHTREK

B1: pREC8, phosphorylated meiosis-specific cohesin REC8 (protein, UniProt Q8C5S7 1-591)
chain: MFYYPNVLQRHTGCFATIWLAATRGSRLVKREYLNVNVVKTCEEILNYVLVRVQPPVAGLPRPRFSLYLSAQLQIGVIRVYFQQCQYLVEDIQHILEHLHRAQLRIRIDMEEADLPSLLLPNCLAMMETLEDAPEPFFGKMSVDPRLPSPFDIPQIRHLLEAATPEKTRKETLPEATPDPRKPDRTLATVQSPEVITLQEAEPIRMLQIEGEQDLPEISRGDLELLIAEKDDAILLEERQRGRLLRQRRASLPLDESREEPRALEGAGLVSALSPPAPAQVEGIQEALPGQVFPPEVQKMTGWEPGALLTEVTPPQELRLPAPPSTEKRLPSLQRPLPRRHRRRQLLFWDKETQISREKFEEQLQTGAHCWEYPVAQPPKRMLTSPAELFRTPTLSGWLPPELLGLWTHCAQVPQRMLRQRPQLETEETVEEERAADEEERRKTEALSEIEVLREAQEPSGPLMLSSELSLEAAEDEKSRTSLIPPEWWAWSEEGQPEPPALPMLPELPEVPMEMPPRPELSSEAVLRAVALKLQANKELDFSSLVPPLSPRKLASRVFYLLLVLSTQKILLVEQQKPYGPLLIRPGPKFP
modifications: phosphorylated (sites not given)
B2: SYCP3, synaptonemal complex protein, P70281 1-254 (protein)
chain: MLRGCGDSDSSPEPLSKHLKMVPGGRKHSGKSGKPPLVDQPKKAFDFEKDDKDLSGSEEDVADEKAPVIDKHGKKRSAGIIEDVGGEVQNMLEKFGADINKALLAKRKRIEMYTKASFKASNQKIEQIWKTQQEEIQKLNNEYSQQFMNVLQQWELDIQKFEEQGEKLSNLFRQQQKIFQQSRIVQSQRMFAMKQIHEQFIKSLEDVEKNNDNLFTGTQSELKKEMAMLQKKVMMETQQQEMANVRKSLQSMLF
B3: SYCP1, synaptonemal complex protein, Q62209 1-993 (protein)
chain: MEKQKPFTLFVPPRLSSSQVSAVKPQTAGGDSNYFKTANKCTEGDFGVPFTMSSRENIDKDPAFQKLSILPMLEQVANSGSCHYQEGVNDSDFENSEPMSRLYSKLYKEAEKIKKWKVSIESELKQKENKLQENRKIIEAQRKAIQELQFENEKVSLKLEEEIQENKDLIKENNATIHWCNLLKETCARSAEKTNKYEYEREETRQVYVDLNSNIEKMILAFEELRVQAENARLEMHFKLKEDHEKIQHLEEEYQKEVNNKENQVSELLIQSAEKENKMKDLTFLLEESRDKANQLEEKTKLQDENLKELSEKKDHLTSELEDIKMSMQRSMSTQKALEEDLQIATKTISQLTEVKEAQMEELNKAKTTHSFVVTELKATTCTLEELLRTEQQRLEKNEDQLKLITVELQKKSNELEEMTKFKNNKEVELEELKNILAEDQKLLDEKKQVEKLAEELQEKEQELTFLLETREKEVHDLQEQVTVTKTSEQHYLKQVEEMKTELEKEKLKNTELTASCDMLLLENKKFVQEASDMALELKKHQEDIINCKKQEERLLKQIENLEEKEMHLRDELESVRKEFIQQGDEVKCKLDKSEENARSIECEVLKKEKQMKILESKCNNLKKQVENKSKNIEELHQENKTLKKKSSAEIKQLNAYEIKVSKLELELESTKQRFEEMTNNYQKEIENKKISEGKLLGEVEKAKATVDEAVKLQKEIDLRCQHKIAEMVALMEKHKHQYDKIVEERDSELGLYKNREQEQSSAKIALETELSNIRNELVSLKKQLEIEKEEKEKLKMAKENTAILKDKKDKKIQASLLESPEATSWKFDSKTTPSQNISRLSSSMDSGKSKDNRDNLRASAKSILPTTVTKEYTVKTPTKKSIYQRENKYIPTGGSNKKRKTAFEFDVNSDSSETADLLSLVSEEDVSNRLYDNNPPDSHLLVKTPKQTPLSLSTPASFMKFGSLKKMREDRWTTIAKIDRKRRLKEAEKLFS

Columns and labels:
[1] = target: full-length PRDM9, recombinant (6HisHALO-MBP-PRDM9 and MBP-PRDM9) (UniProt Q96EQ9); assay: pull-down
[2] = target: Ewing sarcoma RNA binding protein 1 (EWSR1) (mouse (endogenous in testis)) (UniProt Q61545); assay: co-IP
[3] = target: T1, Ewing sarcoma RNA binding protein 1 …; assay: co-IP; details: remark: other sources report otherwise

Molecule | binding [3] | other results
full-length PRDM9, recombinant (6HisHALO-MBP-PRDM9 and MBP-PRDM9) (from UniProt Q96EQ9 1-843) |  | binding [1]: binds
B1 |  | binding [2]: binds
B2 | no binding | 
B3 | no binding | 

— doi:10.1101/325282
